Test results reported in article PMC4892509, “Binding of the Fkh1 Forkhead Associated Domain to a Phosphopeptide within the Mph1 DNA Helicase Regulates Mating-Type Switching in Budding Yeast” (PLoS Genetics, 2016).

By UniProt entry, the sequences of proteins in these tests, tags left out. Residues count along the entry.
UniProt P40562, residues 762-993: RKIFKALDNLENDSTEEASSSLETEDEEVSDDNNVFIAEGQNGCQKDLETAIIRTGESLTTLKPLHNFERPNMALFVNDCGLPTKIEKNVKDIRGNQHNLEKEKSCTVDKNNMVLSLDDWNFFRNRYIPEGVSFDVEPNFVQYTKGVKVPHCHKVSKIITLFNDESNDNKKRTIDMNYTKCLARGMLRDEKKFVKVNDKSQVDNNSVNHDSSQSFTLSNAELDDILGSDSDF

B1: GAD fusion of Fkh1-FHA (amino acids 50–202) (domain or fragment, UniProt P40466 50-202)
chain: LSIAREVNAYAKIAGCDWTYYVQKLEVTIGRNTDSLNLNAVPGTVVKKNIDIDLGPAKIVSRKHAAIRFNLESGSWELQIFGRNGAKVNFRRIPTGPDSPPTVLQSGCIIDIGGVQMIFILPEQETIISDYCLNHLMPKLLSTYGTNGNNNPL

Columns and labels:
[1] = target: GBD-fkh1(Δ50–202) (S. cerevisiae) (UniProt P40466); test: two-hybrid; directed assays in strain PJ69-4A: GBD-Fkh1 forms as bait, GAD fusions as prey; reporter genes HIS3 and ADE2, growth on media lacking histidine or both adenine and histidine, compared with the GAD alone
[2] = target: GBD-Mph1 lacking amino acids 751–810 (S. cerevisiae) (UniProt P40562); test: two-hybrid; directed assays in strain PJ69-4A: GBD-Mph1 regions and mutants as bait, Fkh1-FHA or known Mph1 partners as prey; growth on selective media compared with the GAD alone

Row | Molecule | binding [1] | binding [2]
1 | GAD-Mph1-Ct (amino acids 762–993) (from UniProt P40562 762-993) (domain or fragment) | no binding | 
2 | B1 |  | no binding

These are yes or no findings as the source states them, for the method shown. For some assays here: Where a sequence is shown, tags or fusion partners need not be part of it.
